Article PMC11267363, “Supramolecular Nanofibers Ameliorate Bleomycin‐Induced Pulmonary Fibrosis by Restoring Autophagy” (Advanced Science, 2024)
No constants are given. Whether binding was seen depends on the method and setting. For some assays here: Binding seen in cells or lysates may run through a third protein. Some results given as binding are weak or reduced against the parent protein; the word gives no strength.

Chains of the proteins cited; added tags and fusions are not shown. Residues count along the entry.
UniProt Q96RU7: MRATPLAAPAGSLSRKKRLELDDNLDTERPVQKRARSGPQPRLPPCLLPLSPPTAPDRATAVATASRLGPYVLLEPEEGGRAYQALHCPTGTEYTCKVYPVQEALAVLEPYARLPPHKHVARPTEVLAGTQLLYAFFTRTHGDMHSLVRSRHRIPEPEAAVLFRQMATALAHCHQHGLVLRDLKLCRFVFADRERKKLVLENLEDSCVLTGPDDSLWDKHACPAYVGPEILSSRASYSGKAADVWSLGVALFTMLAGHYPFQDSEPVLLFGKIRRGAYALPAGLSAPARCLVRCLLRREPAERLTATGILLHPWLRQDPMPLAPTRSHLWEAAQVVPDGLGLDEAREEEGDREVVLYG
UniProt P02769, residues 25-607: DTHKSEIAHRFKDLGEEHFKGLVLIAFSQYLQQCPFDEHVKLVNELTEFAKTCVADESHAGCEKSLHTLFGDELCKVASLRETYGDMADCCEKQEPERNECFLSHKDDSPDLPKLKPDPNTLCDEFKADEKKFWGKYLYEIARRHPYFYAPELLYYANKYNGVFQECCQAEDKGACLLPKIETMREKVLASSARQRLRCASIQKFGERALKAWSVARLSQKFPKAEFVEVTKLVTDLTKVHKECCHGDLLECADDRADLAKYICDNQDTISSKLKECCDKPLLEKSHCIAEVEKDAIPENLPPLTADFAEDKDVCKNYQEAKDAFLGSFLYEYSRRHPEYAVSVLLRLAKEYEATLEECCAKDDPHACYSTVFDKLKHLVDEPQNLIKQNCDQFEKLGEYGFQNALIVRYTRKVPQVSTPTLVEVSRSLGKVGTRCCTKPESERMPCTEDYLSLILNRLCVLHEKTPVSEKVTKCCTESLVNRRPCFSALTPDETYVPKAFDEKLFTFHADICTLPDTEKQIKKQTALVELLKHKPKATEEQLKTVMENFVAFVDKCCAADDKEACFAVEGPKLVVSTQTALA

B1: Ac-GFFY-A2 peptide (Acetyl-Gly-Phe-Phe-Tyr joined to the N-terminus of A2), self-assembled into nanofibers (peptide)
peptide: GFFYGGWLTRLLQTK
modifications: acetyl on the N-terminus
B2: A2 peptide (TRB3-binding peptide fragment derived from p62) (peptide)
peptide: GGWLTRLLQTK
notes: also called non-self-assembling peptide A2; source: synthetic peptide (SPPS, purified by HPLC)

How the values were obtained:
[1] = target: TRB3, endogenous in MRC-5 human lung fibroblasts (human (endogenous in MRC-5)) (UniProt Q96RU7); assay: co-IP; MRC-5 cells treated with TGF-β1 (10 ng/mL) and saline, A2 (50 µM) or Ac-GFFY-A2 (50 µM); endogenous proteins; which protein was precipitated is not told
[2] = target: bovine serum albumin (bovine) (UniProt P02769); assay: MST; Monolith NT.115; Ac-GFFY-A2 or A2 against human TRB3 protein or BSA (negative control); which partner was labelled is not told; both purified
[3] = target: TRB3, endogenous in MRC-5 human lung fibroblasts (human (endogenous in MRC-5)) (UniProt Q96RU7); assay: co-IP; synthetic peptide (50 µM) added to TGF-β1 treated MRC-5 cells; loss of the TRB3/p62 co-precipitate as read-out of the peptide on endogenous TRB3; only the binder purified
[4] = target: T1, TRB3, endogenous in mouse lung tissue (mouse (endogenous in C57BL/6 lung tissue)) (UniProt Q8K4K2); assay: co-IP; peptide nanofibers given i.v. to bleomycin-injured mice; loss of the TRB3/p62 co-precipitate from lung tissue as read-out of the peptide on endogenous TRB3; only the binder purified
T1 sequence: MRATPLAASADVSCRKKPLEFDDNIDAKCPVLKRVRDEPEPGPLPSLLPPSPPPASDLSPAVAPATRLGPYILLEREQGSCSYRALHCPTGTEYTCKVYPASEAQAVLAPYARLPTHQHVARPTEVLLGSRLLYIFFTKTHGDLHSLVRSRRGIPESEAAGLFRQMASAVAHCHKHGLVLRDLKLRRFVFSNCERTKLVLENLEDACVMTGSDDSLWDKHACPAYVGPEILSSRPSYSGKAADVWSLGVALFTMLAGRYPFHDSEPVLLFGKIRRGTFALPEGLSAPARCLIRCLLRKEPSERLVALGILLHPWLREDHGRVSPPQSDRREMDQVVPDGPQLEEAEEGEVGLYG

Molecule	binding [1]	binding [2]	binding [3]	binding [4]
p62, endogenous in MRC-5 human lung fibroblasts (from UniProt Q13501 1-440)	binds	–	–	–
B1	–	no binding	binds	binds
B2	–	no binding	–	–
